Measured values published in patent US20210403587A1.
Results are given in words; binding and its absence hold for the method and conditions named. Some results given as binding are weak or reduced against the parent protein; the word gives no strength.

By UniProt entry, the sequences of proteins in these tests, tags left out. Residues count along the entry.
UniProt Q02223, residues 1-54: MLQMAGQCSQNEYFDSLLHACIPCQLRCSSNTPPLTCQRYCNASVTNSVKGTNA

Biological target: human B-cell maturation antigen (BCMA) (human) (UniProt Q02223)
Experiment: ELISA on protein and/or binding to cells expressing the target

B1: Anti-BCMA heavy chain-only variable region of TNB-383B (BCMA monovalent heavy chain) (antibody, V domains shown)
VH: EVQLLESGGGLVQPGGSLRLSCAASGFTVSSYGMSWVRQAPGKGPEWVSGIRGSDGSTYYADSVKGRFTISRDNSKNTLYLQMNSLRAEDTAVYYCAKQGENDGPFDHRGQGTLVTVSS
Q: Which binding does the source give for B1 here?
A: The binding was “binds”.
